Record: PubChem BioAssay AID652272 (Drosophila RNAi Screening Center, 2013)
Aim: 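Genes whose knock-down decreases or increases Hedgehog reporter output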 (primary screen). Cell system: Drosophila clone 8 (Cl8) cells. Reagents: long dsRNA against Drosophila genes. Measured: 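Firefly light from a Hedgehog-responsive ptc promoter reporter and Renilla reference light, both read on a plate reader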. Direction: firefly Hh reporter signal: higher = more ptc reporter light; Renilla reference signal: higher = more Renilla control light. Hit rule: 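Called a hit if the two-replicate mean z-score lies below -2 or above +3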. Calls: active = hit: reporter lowered or raised; inactive = not a hit.
The deposit covers about 21,000 reagents; this is a random part of those that have a named target and a result. Over the whole deposit, 503 (2.4%) are marked active. 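Raw plate light values, not normalised; calls rest on replicate z-scores that were not deposited; hits include reporter decreases as well as increases.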 A number with no mark means an inactive call. The numbers tell different reagents against one gene apart. The record does not give: the amount of reagent, the time to read-out.

lost #1 → firefly Hh reporter signal, replicate 1 = 2.68e5; Renilla reference signal, replicate 1 = 5245
lost #2 → firefly Hh reporter signal, replicate 1 = 1.81e5; firefly Hh reporter signal, replicate 2 = 7.63e5; firefly Hh reporter signal, replicate 3 = 1.07e5; Renilla reference signal, replicate 1 = 7158; Renilla reference signal, replicate 2 = 44603
fand (fandango) → firefly Hh reporter signal, replicate 1 = 73424; firefly Hh reporter signal, replicate 2 = 41418; Renilla reference signal, replicate 1 = 4148; Renilla reference signal, replicate 2 = 1936
RabGGTa (Rab geranylgeranyltransferase subunit alpha) → firefly Hh reporter signal, replicate 1 = 1.74e5; firefly Hh reporter signal, replicate 2 = 1.15e5; Renilla reference signal, replicate 1 = 5856; Renilla reference signal, replicate 2 = 4320
CG4194 → firefly Hh reporter signal, replicate 1 = 1.55e5; firefly Hh reporter signal, replicate 2 = 75469; Renilla reference signal, replicate 1 = 2628; Renilla reference signal, replicate 2 = 2995
hng1 (hinge1) → firefly Hh reporter signal, replicate 1 = 80812; firefly Hh reporter signal, replicate 2 = 56088; Renilla reference signal, replicate 1 = 3410; Renilla reference signal, replicate 2 = 2311
CG7299 → firefly Hh reporter signal, replicate 1 = 1.12e5; firefly Hh reporter signal, replicate 2 = 61344; Renilla reference signal, replicate 1 = 1529; Renilla reference signal, replicate 2 = 4194
TwdlS (TweedleS) → firefly Hh reporter signal, replicate 1 = 74722; firefly Hh reporter signal, replicate 2 = 1.01e5; Renilla reference signal, replicate 1 = 2290; Renilla reference signal, replicate 2 = 2785
CR42785 (pseudo) → firefly Hh reporter signal, replicate 1 = 1.61e5; firefly Hh reporter signal, replicate 2 = 1.78e5; Renilla reference signal, replicate 1 = 4048; Renilla reference signal, replicate 2 = 8125
jim → firefly Hh reporter signal, replicate 1 = 1.72e5; firefly Hh reporter signal, replicate 2 = 1.33e5; Renilla reference signal, replicate 1 = 5856; Renilla reference signal, replicate 2 = 4221
CG32712 → firefly Hh reporter signal, replicate 1 = 1.03e5; firefly Hh reporter signal, replicate 2 = 77312; Renilla reference signal, replicate 1 = 2450; Renilla reference signal, replicate 2 = 1829
CG34221 → firefly Hh reporter signal, replicate 1 = 68724; firefly Hh reporter signal, replicate 2 = 66705; Renilla reference signal, replicate 1 = 1692; Renilla reference signal, replicate 2 = 6088
GstE1 (Glutathione S transferase E1) → firefly Hh reporter signal, replicate 1 = 89821; firefly Hh reporter signal, replicate 2 = 46677; Renilla reference signal, replicate 1 = 2561; Renilla reference signal, replicate 2 = 4221
Nrk (Neurospecific receptor kinase) → firefly Hh reporter signal, replicate 1 = 68881; firefly Hh reporter signal, replicate 2 = 60118; Renilla reference signal, replicate 1 = 1832; Renilla reference signal, replicate 2 = 4877
Ugt302C1 (UDP-glycosyltransferase family 302 member C1) → firefly Hh reporter signal, replicate 1 = 92344; firefly Hh reporter signal, replicate 2 = 92440; Renilla reference signal, replicate 1 = 3332; Renilla reference signal, replicate 2 = 3044
CG3808 → firefly Hh reporter signal, replicate 1 = 68950; firefly Hh reporter signal, replicate 2 = 1.38e5; Renilla reference signal, replicate 1 = 2019; Renilla reference signal, replicate 2 = 3671
spi (spitz) → firefly Hh reporter signal, replicate 1 = 78099; firefly Hh reporter signal, replicate 2 = 40940; Renilla reference signal, replicate 1 = 1467; Renilla reference signal, replicate 2 = 3644
Nt5c (5' nucleotidase C) → firefly Hh reporter signal, replicate 1 = 90588; firefly Hh reporter signal, replicate 2 = 54695; Renilla reference signal, replicate 1 = 3872; Renilla reference signal, replicate 2 = 2384
Uch-L5R (Uch-L5-related) → firefly Hh reporter signal, replicate 1 = 68696; firefly Hh reporter signal, replicate 2 = 1.88e5; Renilla reference signal, replicate 1 = 2043; Renilla reference signal, replicate 2 = 6780
Bdbt (Bride of doubletime) → firefly Hh reporter signal, replicate 1 = 4.43e5; firefly Hh reporter signal, replicate 2 = 90914; Renilla reference signal, replicate 1 = 27504; Renilla reference signal, replicate 2 = 448
Crtc (CREB-regulated transcription coactivator) → firefly Hh reporter signal, replicate 1 = 33880 (active); Renilla reference signal, replicate 1 = 3000; Renilla reference signal, replicate 2 = 1605
Mst84Dc (Male-specific RNA 84Dc) → firefly Hh reporter signal, replicate 1 = 1.25e5; firefly Hh reporter signal, replicate 2 = 88248; Renilla reference signal, replicate 1 = 5395; Renilla reference signal, replicate 2 = 2965
Gr47b (Gustatory receptor 47b) → firefly Hh reporter signal, replicate 1 = 1.06e5; firefly Hh reporter signal, replicate 2 = 2.40e5; Renilla reference signal, replicate 1 = 2944; Renilla reference signal, replicate 2 = 8836
CG44085 #1 → firefly Hh reporter signal, replicate 1 = 29484 (active); firefly Hh reporter signal, replicate 2 = 10404; Renilla reference signal, replicate 1 = 1443; Renilla reference signal, replicate 2 = 1613
CG44085 #2 → firefly Hh reporter signal, replicate 1 = 1.36e5; firefly Hh reporter signal, replicate 2 = 64269; Renilla reference signal, replicate 1 = 2838; Renilla reference signal, replicate 2 = 5594
CG8188 → firefly Hh reporter signal, replicate 1 = 1.39e5; firefly Hh reporter signal, replicate 2 = 3.52e5; Renilla reference signal, replicate 1 = 5370; Renilla reference signal, replicate 2 = 13355
Ugt37C1 (UDP-glycosyltransferase family 37 member C1) → firefly Hh reporter signal, replicate 1 = 62983; firefly Hh reporter signal, replicate 2 = 56080; Renilla reference signal, replicate 1 = 875; Renilla reference signal, replicate 2 = 3971

Laid out differently: results already given
CG4194
- firefly Hh reporter signal, replicate 1: 1.55e5
- firefly Hh reporter signal, replicate 2: 75469
- Renilla reference signal, replicate 1: 2628
- Renilla reference signal, replicate 2: 2995

hng1 (hinge1)
- firefly Hh reporter signal, replicate 1: 80812
- firefly Hh reporter signal, replicate 2: 56088
- Renilla reference signal, replicate 1: 3410
- Renilla reference signal, replicate 2: 2311
